Values quoted from earlier work, collected in patent US20020025296A1, “Combined use of nucleoside analogues and gene transfection for tissue imaging and therapy” (priority 1994, published 2002).
Some entries share one result that the patent states for a list of compounds.

System: HSV-TK gene-transfected FM3A cells
Conditions: cited from earlier work

Structure (SMILES) | fold more cytostatic to HSV-TK gene-transfected FM3A cells than wild-type FM3A/O cells
O=c1[nH]c(=O)n([C@H]2C[C@H](O)[C@@H](CO)O2)cc1-c1ccco1 [5-(furan-2-yl)-2′-deoxyuridine] | at least 100 fold
O=c1[nH]c(=O)n([C@H]2C[C@H](O)[C@@H](CO)O2)cc1-c1cccs1 [5-(thien-2-yl)-2′-deoxyuridine] | at least 100 fold
